# Data: PubChem BioAssay AID504594 (Broad Institute, 2011)
# Values joined by “and” are separate entries in the source; they are usually repeats but may differ in a detail not shown here. Equal values may be shown once. In all, about 2,000 compounds went through this assay and fewer than 10 were called active.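 How the source made its calls: active means growth inhibition of at least 75% in every replicate, which also brings the mean inhibition to 75% or more; inconclusive means mean inhibition 75% or more but some replicate under 75%; inactive means the rest.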 The list shows a part of the results.
# Experiment: reduced viability of yeast carrying PfHsp90 – S. cerevisiae, BacTiter-Glo luminescence, antimalarial PfHsp90 inhibitor project, primary screen (AID 504594);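 further: 0% = DMSO neutral control wells and 100% = 20 µM radicicol control wells; higher value means stronger growth inhibition because the sign is flipped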
# Conditions: S. cerevisiae expressing PfHsp90, BacTiter-Glo growth, 48 h; at 9.4 µM; hits give high values
row,Structure (SMILES),growth inhibition
1,CC(=O)[C@@]1(O)CC[C@H]2[C@@H]3C[C@H](C)C4=CC(=O)C=C[C@]4(C)[C@@]3(F)[C@@H](O)C[C@@]21C,inactive: 4.15%
2,CCc1nc(N)nc(N)c1-c1ccc(Cl)cc1,inactive: 7.83%
3,O=C(NCCc1cccc(F)c1)[C@@H]1CSC2c3ccccc3C(=O)N21 (stereo not given in full),inactive: 3.04%
4,CC(C)NCC(O)COc1ccc(CCOCC2CC2)cc1 (stereo not given),inactive: -15.4%
5,CCOc1ccc2ccccc2c1C(=O)N[C@@H]1C(=O)N2[C@@H]1SC(C)(C)[C@@H]2C(=O)O,inactive: -3.92%
6,CCCC(=O)O[C@]1(C(=O)CCl)[C@@H](C)C[C@H]2[C@@H]3CCC4=CC(=O)C=C[C@]4(C)[C@@]3(F)C(=O)C[C@@]21C,inactive: -2.71%
7,CCN(CC)CCNC(=O)c1cc(Cl)c(N)cc1OC,inactive: -0.117%
8,Cn1c(=O)c2c(nc(SCCN3CCCCC3)n2C)n(C)c1=O,inactive: -0.0425%
9,COc1cc2c(cc1OC)C1(CCCC1)CNC2c1cccc([N+](=O)[O-])c1 (stereo not given),inactive: -7.37%
10,[N-]=[N+]=NC1C[C@H](n2ccc(=O)[nH]c2=O)O[C@@H]1CO (stereo not given in full),inactive: -3.51%
11,CCc1ccc(/C=C2\Oc3cc(OC(=O)N4CCOCC4)ccc3C2=O)cc1,inactive: -8.25%
12,CC1=NN(c2ccccc2)C(=O)C1,inactive: 1.75%
13,COc1ccc(S(=O)(=O)NCc2ccco2)c2ccccc12,inactive: -1.2%
14,COc1ccc(CCNC(=O)c2c(O)c3c([nH]c2=O)CCCC3)cc1,inactive: -3.5%
15,O=C(O)CCNC(=O)c1ccccc1,inactive: 0.443%
16,Cc1oc2c(O)c(O)ccc2c(=O)c1-c1ccccc1,inactive: 10.8%
17,CC(C)CCn1c(N2CCc3ccccc3C2)nc2c1c(=O)[nH]c(=O)n2C,inactive: 1.4%
18,c1ccc(Nc2ccccn2)nc1,inactive: 9.43%
19,CC(C)[N+](C)(CCOC(=O)C1c2ccccc2Oc2ccccc21)C(C)C,inactive: 6.68%
20,c1cc2c(cc1C1CCCCC1)c1c3n2CCN=C3CCC1,inactive: 9.82%
21,Cc1ccc2c(c1C)NC(C(=O)O)C1CC=CC21 (stereo not given),inactive: -5.37%
22,COc1cccc2c1C(=O)O/C2=C/c1ccc2c(c1)OCO2,inactive: -11.7%
23,CC(C)CC(=O)Nc1ccc2oc(-c3ccncc3)nc2c1,inactive: -1.92%
24,CCN(Cc1ccncc1)Cc1nc(Cc2ccccc2Cl)no1,inactive: 11.7%
25,NS(=O)(=O)c1cc2c(cc1Cl)NC(C(Cl)Cl)NS2(=O)=O (stereo not given),inactive: -15.3%

row,Structure (SMILES),growth inhibition
1,COc1cccc(N2CC(O)=C(c3nc4ccccc4c(=O)[nH]3)C2=N)c1,inactive: 10.7%
2,C[C@H](NC(=O)OC(C)(C)C)C(=O)NCC1CCC(C(=O)O)CC1 (stereo not given in full),inactive: 9.54%
3,NC(N)=NC(=O)Cc1c(Cl)cccc1Cl,inactive: 2.04%
4,CC/C(=C(\c1ccc(O)cc1)c1ccc(OCCN(C)C)cc1)c1ccccc1,inactive: 4.47%
5,COc1ccc(OC)c(S(=O)(=O)N2CCCc3ccccc32)c1,inactive: -0.0448%
6,NCCc1cnc[nH]1,inactive: 5.58% and inactive: -11.8%
7,NCCCC(=O)O,inactive: -3.11%
8,O=C(c1ccccc1)N1CCN(C(=O)c2ccccc2)CC1,inactive: 2.86%
9,COc1ccc2[nH]c3c(=O)n(/N=C/[C@H]4C(C)C=C(C)CC4C)c(=O)[nH]c3c2c1 (stereo not given in full),inactive: 1.84%
10,COc1cc2c(cc1OC)C(c1cc(OC)c(OC)c(OC)c1)NCC2 (stereo not given),inactive: 11.1%
11,CN(C)C(=O)C(CCN1CCC(O)(c2ccc(Cl)cc2)CC1)(c1ccccc1)c1ccccc1,inactive: 2.45%
12,CSCCC(NC(=O)OC(C)(C)C)C(=O)Oc1ccc2c(=O)c(-c3ccc4c(c3)OCCO4)coc2c1 (stereo not given),inactive: -2.29%
13,CC(C(=O)O)c1ccc(-c2ccccc2)c(F)c1 (stereo not given),inactive: -7.02%
14,C=CCOc1ccc(C(=O)CC)cc1OC,inactive: -12.7%
15,Cn1c(=O)[nH]c2nnc(-c3ccc(Cl)c(Cl)c3)nc2c1=O,inactive: 1.34%
16,Cn1c(=O)c2nc3ccccc3nc2n(C)c1=O,inactive: -2.91%
17,O=P(O)(O)CP(=O)(O)O,inactive: 0.855%
18,COc1ccc(/C=N\NC(=O)CCc2c(C)n[nH]c2C)c(OC)c1OC,inactive: 7.63%
19,O=C(CCCC(=O)OCC1CCCO1)OCC1CCCO1 (stereo not given),inactive: -10.2%
20,Cc1cc(=O)oc(C)c1C(=O)NCCC(C)C,inactive: 1.5%
21,CC(=O)N1N=C(c2cccs2)CC1c1ccc(C)o1 (stereo not given),inactive: 15.9%
22,O=C(Cc1c[nH]c2ccccc12)OCCOC(=O)Cc1c[nH]c2ccccc12,inactive: -5.62%
23,Cc1ccc(Nc2ncccc2C(=O)O)cc1C,inactive: -4.41%
24,O=C(CCCCCCCC(=O)c1ccccc1)c1ccccc1,inactive: -4.37%
25,Cc1cc(=O)[nH]c(=S)[nH]1,inactive: 5.04%

# Some of these compounds in order of molecular weight, ascending:
row,Structure (SMILES),growth inhibition
17,O=P(O)(O)CP(=O)(O)O,inactive: 0.855%
8,O=C(c1ccccc1)N1CCN(C(=O)c2ccccc2)CC1,inactive: 2.86%
24,O=C(CCCCCCCC(=O)c1ccccc1)c1ccccc1,inactive: -4.37%
2,C[C@H](NC(=O)OC(C)(C)C)C(=O)NCC1CCC(C(=O)O)CC1 (stereo not given in full),inactive: 9.54%
1,COc1cccc(N2CC(O)=C(c3nc4ccccc4c(=O)[nH]3)C2=N)c1,inactive: 10.7%
11,CN(C)C(=O)C(CCN1CCC(O)(c2ccc(Cl)cc2)CC1)(c1ccccc1)c1ccccc1,inactive: 2.45%

# Remaining list, next part

row,Structure (SMILES),growth inhibition
1,C=C(C)Cn1c(NCCOC)nc2c1c(=O)[nH]c(=O)n2C,inactive: -4.19%
2,COc1cc2c(cc1OC)/C(=C/c1ccc(Cl)cc1)C(=O)OC2,inactive: -9.89%
3,CC(=O)c1ccc(CCCCCCCCCC(=O)O)s1,inactive: -16.6%
4,COc1ccc(/C=C/C(=O)Nc2ccccc2C(=O)O)cc1OC,inactive: 6.71%
5,COC(=O)c1cc(-c2ccc(OC)c(OC)c2)on1,inactive: -8.12%
6,COC(=O)c1[nH]c(=O)c2ccccc2c1O,inactive: -11.7%
7,CC(=O)N/C(=C/c1ccc2c(c1)OCO2)C(=O)NCCO,inactive: -2.13%
8,CCc1nc2ccccc2c(NC(=O)CN2CC(C)CC(C)C2)c1C (stereo not given),inactive: 2.78%
9,Oc1ccc(/C=C/c2cc(O)cc(O)c2)cc1,inactive: -1.18%
10,CNc1nc(Nc2ccccc2)nc(OCC(F)(F)F)n1,inactive: 11.7%
11,COc1cccc(OC)c1C(=O)NCCSC1CCCCC1,inactive: -5.91%
12,COc1ccc(C(=O)/C=C2/c3ccccc3CC(C)(C)N2C)cc1,inactive: -6.13%
13,O=C(CCC(=O)NCCO)NCCO,inactive: -11.6%
14,Oc1c(Cl)cc(Cl)c(Cl)c1Cc1c(O)c(Cl)cc(Cl)c1Cl,active: 104%
15,CCCCC[C@H](O)/C=C/C1=C(CCCCCCC(=O)O)C(=O)CC1,inactive: -8.84%
16,COc1cccc(-n2c(C)c3c(OC)cccc(=O)c3c2C)c1,inactive: -7.68%
17,Cc1csc(-c2coc3cc(O)cc(C)c3c2=O)n1,inactive: 23.5%
18,COc1ccc(NC(=O)C2C(=O)N(CCO)C3(C)CC2c2ccccc2O3)cc1 (stereo not given),inactive: -3.64%
19,Cc1ccc(S(=O)(=O)n2ccnc2)cc1C,inactive: 0.676%
20,CC(C)CC(NC(=O)C1CCCN1C(=O)OC(C)(C)C)C(=O)NCC(N)=O (stereo not given),inactive: -3.62%
21,Cc1ncc(C(=O)O)c(C(=O)O)c1N,inactive: 4.62%
22,CN1CCN(CCCN2c3ccccc3Sc3ccc(C(F)(F)F)cc32)CC1,inactive: 0.19%
23,CNC[C@H](O)c1ccc(O)c(O)c1,inactive: 4.99%
24,C[N+]1(C2CCC3CCCC2C3O)CCCCC1 (stereo not given),inactive: -8.1%
25,CC(C)[N+]1(C)[C@@H]2CC[C@H]1CC(OC(=O)C(CO)c1ccccc1)C2 (stereo not given in full),inactive: -14.8%

row,Structure (SMILES),growth inhibition
1,COC(=O)c1cc(OC)c(OC)cc1NC(=O)CN1C(=O)c2ccccc2C1=O,inactive: -14.3%
2,Cc1ccc(S(=O)(=O)NC(C(=O)Oc2ccc3c(C(F)(F)F)cc(=O)oc3c2)c2ccccc2)cc1 (stereo not given),inactive: -9.05%
3,CN(C(=O)C(Cl)Cl)c1ccc(OC(=O)c2ccco2)cc1,inactive: -1.22%
4,Cc1oc2c(CN3CCCC3)c(O)ccc2c(=O)c1-c1ccc(Cl)cc1,inactive: 0.627%
5,CN(C)CCOC(C)(c1ccccc1)c1ccccn1 (stereo not given),inactive: 9.37%
6,COc1ccccc1C(=O)Oc1ccc2c(c1)O/C(=C\c1ccncc1)C2=O,inactive: 11.4%
7,C(=C\c1ccccc1)/CN1CCN(C(c2ccccc2)c2ccccc2)CC1,inactive: 1.92%
8,O=C(C1CCCCC1)N1CC(=O)N2CCc3ccccc3C2C1 (stereo not given),inactive: 6.89%
9,CCOC(=O)C1C(=O)OC2(CCOC(C)(C)C2)C1C(=O)OCC (stereo not given),inactive: -2.41%
10,Cc1ccc(OCCCCn2ccnc2C)c(C)c1,inactive: -3.77%
11,C=CCc1cc(Cl)ccc1OCCOCCN(C)C,inactive: 0.654%
12,CC(=O)NC1C(OCCOc2ccc(Cl)cc2Cl)OC(COC(C)=O)C(OC(C)=O)C1OC(C)=O (stereo not given),inactive: 25.1%
13,Cn1c(=O)c2c(ncn2Cc2ccccc2)n(C)c1=O,inactive: 14%
14,CCOC(=O)C(NC(=O)CCC(=O)Nc1ccc(S(N)(=O)=O)cc1)C(O)c1ccccc1 (stereo not given),inactive: -0.0283%
15,O=c1c(-c2ccc3c(c2)OCCO3)coc2cc(OC3OC(CO)C(O)C(O)C3O)ccc12 (stereo not given),inactive: -22.6%
16,Cc1cccc(N2CCN(C(=S)c3ccccc3)CC2)c1,inactive: 26.4%
17,O=c1ccc2c(o1)/C(=C/C=C(Cl)Cl)CCC2,inactive: -2.29%
18,CC(C)CN1CCN(Cc2ccc(C#CC(C)(C)O)cc2)CC1CCO (stereo not given),inactive: 15.6%
19,Nc1nc2ccc(OC(F)(F)F)cc2s1,inactive: 0.568%
20,COc1ccc2c(c1)c(CC(=O)O)c(C)n2C(=O)c1ccc(Cl)cc1,inactive: 2.55%
21,O[C@H]1COC2C1OC[C@@H]2O (stereo not given in full),inactive: -2.02%
22,CCc1cccc2c1NC1(CCCC1)CC2C (stereo not given),inactive: 0.87%
23,O=C(COc1ccc2ccc(=O)oc2c1)c1ccccc1,inactive: -9.66%
24,COc1ccc(OCc2cccc(C(=O)NN)c2)cc1,inactive: -0.848%
25,C/C(=N\NC(=O)c1ccccc1[N+](=O)[O-])c1ccc(Br)s1,inactive: 2.92%
